# Laboratory results as given in patent publication US7485327B2, “Composition comprising Melissa leaf extract for anti-angiogenic and matrix metalloproteinase inhibitory activity” (AngioLab, Inc., priority 2001, dated 2009).
# For at least one compound, name, drawing or mass did not settle the structure.
# Molecular target: T1, MMP-1 (collagenase-1) (Homo sapiens, UniProt P03956)
# T1 sequence (P03956 100-469): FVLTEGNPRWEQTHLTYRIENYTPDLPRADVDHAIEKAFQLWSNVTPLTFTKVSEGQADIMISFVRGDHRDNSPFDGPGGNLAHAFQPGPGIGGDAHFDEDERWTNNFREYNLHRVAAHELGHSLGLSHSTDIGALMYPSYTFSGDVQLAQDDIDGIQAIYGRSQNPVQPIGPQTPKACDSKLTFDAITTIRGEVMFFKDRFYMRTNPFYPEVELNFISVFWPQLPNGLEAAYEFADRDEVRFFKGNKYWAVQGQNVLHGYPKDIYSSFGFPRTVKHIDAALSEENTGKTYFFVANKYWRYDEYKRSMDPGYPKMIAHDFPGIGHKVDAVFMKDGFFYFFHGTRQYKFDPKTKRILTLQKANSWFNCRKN
# Assay: Casein zymogram of MMP-1 activity
# Format: biochemical
structure (smiles),measurement,value
C[C@H]1c2cccc(O)c2C(=O)C2=C(O)[C@]3(O)C(=O)C(C(N)=O)=C(O)[C@@H](N(C)C)[C@@H]3[C@@H](O)[C@@H]21 [doxycycline],Inhibitory effect on MMP-1 activity in casein zymogram (FIG. 12),inhibition of MMP-1 activity
